Reference: PubChem BioAssay AID504808 (Drosophila RNAi Screening Center, 2011)
The screen tested about 21,000 reagents; this is a random part of those with a known target gene and a result. Over the whole deposit, 18 (0.084%) got an active call. 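Raw counts without plate normalisation, one of two replicates; the ratio scores behind the calls were not deposited.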 Entries without a mark were called inactive. The numbers tell different reagents against one gene apart. Names joined by + are all predicted targets of the reagent. Reagent sequences are not shown. Not given: the amount of reagent, the time to read-out.

Aim: 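Chromatin factors that keep E2F targets switched off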 (primary screen)
System: Drosophila S2 cells
Reagent: long dsRNA against Drosophila genes
Read-out: 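Firefly luciferase driven by E2F sites, normalised to Renilla luciferase on the same minimal promoter, measured by plate reader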
Reading the numbers: E2F firefly: higher = more E2F reporter activity; Renilla normaliser: higher = more normaliser reporter signal
Hit rule: 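Called active if the normalised E2F reporter went up by over 50%; the cutoff is arbitrary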

target	reagent	E2F firefly, rep 1	Renilla normaliser, rep 1
CG17806	1	66494	3314
Gr39b	1	93939	2528
dati	1	1791	960
dati	2	1.24e5	6087
CG2765	1	81315	3490
Unc-115b + p24-2	1	68093	3641
Sodh1	1	69244	3662
CG15699 (retired record)	1	1.48e5	4837
CG6108 (retired record)	1	1.01e5	4713
Pms2	1	93021	3716
nolo	1	80329	3618
nolo	2	1.03e5	4268
nolo	3	1.17e5	4530
Sys1	1	1.35e5	6756
EndoGI	1	1.10e5	4333
CG6418	1	62420	3092
mRpL10	1	85199	3117
CG2875	1	1809	868
CG44422	1	82146	2145
CG44422	2	37851	2972
CG44422	3	86804	4337
Nuak	1	1.54e5	6305
Nuak	2	68022	3331
Nuak	3	1.45e5	6342
Papss	1	81947	3797
TER94	1	3320	59
Cad96Ca	1	1.17e5	5387
Cad96Ca	2	1.10e5	6115
CG34268	1	1.27e5	3990
CG6793	1	1.37e5	6740
CG17985	1	1.41e5	5263
Taf1	1	1.16e5	6149
Orcokinin	1	1.05e5	4207
CtsB	1	8102	788
twi	1	87156	4241
CG7298	1	68213	3883
drd	1	1.60e5	6044
CG2111	1	1.34e5	5649
Obp59a	1	97758	4365
CG15169	1	96855	3937
CG11349	1	87042	3826
Ephrin	1	1.24e5	6132
Sap130	1	1.22e5	6894
CG7685	1	1.24e5	7483
CG5418	1	92837	4158
Osi1	1	1.14e5	4937
toe	1	1.44e5	5024
toe	2	99209	4387
CG14070	1	1.50e5	5140
Rab9Db + Rab9D + Rab9E	1	82232	3006
PGRP-LA	1	1.11e5	5539
PGRP-LA	2	1.04e5	5718
Ac13E	1	1.58e5	6248
Sgf11	1	1.79e5	8599
aop	1	1.48e5	4837
wntD	1	1.09e5	5581
Rel	1	81685	4126
